For at least one compound, name, drawing or mass did not settle the structure. Where a SMILES comes first, the peptide text is derived from it. Where no end group is shown, it is not given here. [ ]: non-standard residue; d: D form. The star is where a group is joined. Biotin = O=C1N[C@H]2[C@H](CS[C@H]2CCCCC(=O)*)N1; PEG10 = NCCOCCOCCOCCOCCOCCOCCOCCOCCOCCOCCC(=O)O
biological target: T1, BMP2 (Homo sapiens, UniProt P12643); assay: BMP-2 binding by compositions pre-bound to DBM (ELISA); details: composition (10 μM) first bound to DBM, then serial dilutions of BMP-2; read-out: Binding specificities for BMP of bone-bound compositions EC50
T1 sequence (P12643 283-396): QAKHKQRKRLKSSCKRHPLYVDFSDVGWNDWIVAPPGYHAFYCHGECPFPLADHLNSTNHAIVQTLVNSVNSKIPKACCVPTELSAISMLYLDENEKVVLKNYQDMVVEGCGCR

EC50, < 10 nM:
SFGSWWWGSGAASSRGSSGGGALGFPLKGEVVEGWAGSSGK(Biotin) [compound 140]
CC(C)C[C@H](NC(=O)[C@H](CO)NC(=O)[C@H](CO)NC(=O)[C@H](Cc1ccccc1)NC(=O)[C@H](C)NC(=O)[C@H](CCC(=O)O)NC(=O)[C@H](Cc1c[nH]c2ccccc12)NC(=O)[C@H](C)NC(=O)CNC(=O)[C@H](C)NC(=O)CNC(=O)[C@H](CO)NC(=O)[C@H](CO)NC(=O)CNC(=O)[C@H](CCCNC(=N)N)NC(=O)[C@H](CO)NC(=O)[C@H](Cc1c[nH]c2ccccc12)NC(=O)[C@@H](NC(=O)[C@@H]1CCCN1C(=O)[C@H](C)NC(=O)[C@H](C)NC(=O)[C@H](CO)NC(=O)CNC(=O)[C@H](CC(N)=O)NC(=O)[C@H](Cc1c[nH]c2ccccc12)NC(=O)[C@H](Cc1ccccc1)NC(=O)CNC(=O)[C@H](Cc1c[nH]c2ccccc12)NC(=O)[C@H](Cc1c[nH]c2ccccc12)NC(=O)[C@@H](N)CO)C(C)C)C(=O)N[C@@H](CO)C(=O)NCC(=O)N[C@@H](CO)C(=O)N[C@@H](CCCNC(=N)N)C(=O)N[C@H](C(=O)NCC(=O)N[C@@H](CO)C(=O)N[C@@H](CO)C(=O)NCC(=O)N[C@@H](CCCCNC(=O)CCCC[C@@H]1SC[C@@H]2NC(=O)N[C@@H]21)C(=O)O)C(C)C [compound 138] (H-SWWGFWNGSAAPVWSRGSSGAGAWEAFSSLSGSRVGSSGK(Biotin)-OH; N-terminus and C-terminus assumed)
CC(C)C[C@H](NC(=O)[C@H](CO)NC(=O)[C@H](CO)NC(=O)[C@H](Cc1ccccc1)NC(=O)[C@H](C)NC(=O)[C@H](CCC(=O)O)NC(=O)[C@H](Cc1c[nH]c2ccccc12)NC(=O)[C@H](C)NC(=O)CNC(=O)[C@H](C)NC(=O)CCOCCOCCOCCOCCOCCOCCOCCOCCOCCOCCNC(=O)CNC(=O)[C@H](CCCNC(=N)N)NC(=O)[C@H](CO)NC(=O)[C@H](CO)NC(=O)[C@H](C)NC(=O)[C@H](C)NC(=O)CNC(=O)[C@H](CO)NC(=O)CNC(=O)[C@H](Cc1c[nH]c2ccccc12)NC(=O)[C@H](Cc1c[nH]c2ccccc12)NC(=O)[C@H](Cc1c[nH]c2ccccc12)NC(=O)[C@H](CO)NC(=O)CNC(=O)[C@H](Cc1ccccc1)NC(=O)[C@@H](N)CO)C(=O)N[C@@H](CO)C(=O)NCC(=O)N[C@@H](CO)C(=O)N[C@@H](CCCNC(=N)N)C(=O)N[C@H](C(=O)NCC(=O)N[C@@H](CO)C(=O)N[C@@H](CO)C(=O)NCC(=O)N[C@@H](CCCCNC(=O)CCCC[C@@H]1SC[C@@H]2NC(=O)N[C@@H]21)C(N)=O)C(C)C [compound 142] (H-SFGSWWWGSGAASSRG[PEG10]AGAWEAFSSLSGSRVGSSGK(Biotin)-NH2; N-terminus and C-terminus assumed)
CC(C)C[C@H](NC(=O)[C@H](CO)NC(=O)[C@H](CO)NC(=O)[C@H](Cc1ccccc1)NC(=O)[C@H](C)NC(=O)[C@H](CCC(=O)O)NC(=O)[C@H](Cc1c[nH]c2ccccc12)NC(=O)[C@H](C)NC(=O)CNC(=O)CNC(=O)CNC(=O)CCOCCOCCOCCOCCOCCOCCOCCOCCOCCOCCNC(=O)CNC(=O)[C@H](CCCNC(=N)N)NC(=O)[C@H](CO)NC(=O)[C@H](CO)NC(=O)[C@H](C)NC(=O)[C@H](C)NC(=O)CNC(=O)[C@H](CO)NC(=O)CNC(=O)[C@H](Cc1c[nH]c2ccccc12)NC(=O)[C@H](Cc1c[nH]c2ccccc12)NC(=O)[C@H](Cc1c[nH]c2ccccc12)NC(=O)[C@H](CO)NC(=O)CNC(=O)[C@H](Cc1ccccc1)NC(=O)[C@@H](N)CO)C(=O)N[C@@H](CO)C(=O)NCC(=O)N[C@@H](CO)C(=O)N[C@@H](CCCNC(=N)N)C(=O)N[C@H](C(=O)NCC(=O)N[C@@H](CO)C(=O)N[C@@H](CO)C(=O)NCC(=O)N[C@@H](CCCCNC(=O)CCCC[C@@H]1SC[C@@H]2NC(=O)N[C@@H]21)C(N)=O)C(C)C [compound 141] (H-SFGSWWWGSGAASSRG[PEG10]GGGAWEAFSSLSGSRVGSSGK(Biotin)-NH2; N-terminus and C-terminus assumed)
SWWGFWNGSAAPVWSRGSSGAGALGFPLKGEVVEGWAGSSGK(Biotin) [compound 139]
SWWGFWNGSAAPVWSRGSSESAGAWEAFSSLSGSRVGSSGK(Biotin) [compound 137]
